No constants are given. Whether binding was seen depends on the method and setting. Binding seen in cells or lysates may run through a third protein. Binding can be weak; no strength is given.
Biological target: endogenous zebrafish Ryk (zebrafish (endogenous in 18 hpf embryos))
Test: co-IP

B1: endogenous zebrafish Pcdh19 (protein, UniProt F8W3X3 25-1088)
chain: VFNLKYTVEEELRAGTKIANVTADAKVAGFALGNRQPYLRVISNSEPRWVNLSPAGLLITKQKIDRDAVCRQTPKCFISLEVMSNSMEICVIKIEIIDVNDNAPRFPTNHIDIEISENAAPGTRFPLEGASDPDSGSNGIQTYTITPNDIFGLEIKTRGDGSKIAELVVEKTLDRETQSRYTFELTAEDGGDPPKSGTVQLNIKVIDSNDNNPVFDEPVYTVNVLENSPINTLVIDLNATDPDEGTNGEVVYSFINFVSNLTKQMFKIDPKTGVITVNGVLDHEELHIHEIDVQAKDLGPNSIPAHCKVIVNVIDINDNAPEIKLLSENSEMVEVSENAPLGYVIALVRVSDNDSGANGKVQCRLQGNVPFRLNEFESFSTLLVDGRLDREQRDMYNLTILAEDSGYPPLRSSKSFAVKVTDENDNPPYFTKPHYQAMVLENNVPGAFLLAVSARDPDLGMNGTVSYEIIKSEVRGMSVESYVTVNSNGEIYGVRAFNHEDTRTFEFKVSAKDGGDPPLTSNATVRIVVLDVNDNTPVMTTPPLVNGTAEVSIPKNAGVGYLVTQIKADDYDEGENGRLTYSISEGDMAYFEIDQINGEVRTTKTFGENAKPSYQITVVAHDHGQTSLSASAYIVIYLSPDLNAQEQIGPVNLSLIFIIALGSIAVILFVTMIFVAVKCKRDNKEIRTYNCRVAEYSYGNQKKSSKKKKLSKNDIRLVPRDVEETDKMNVVSCSSLTSSLNYFDYHQQTLPLGCRRSESTFLNVENQNSRNAAPNHGYHHTFTGQGPQQPDLIINGMPLPETENYSIDSSYVNSRAHLIKSTSTFKDMEGNSLKDSGHEESDQTDSEHDVQRGHYADTAVNDVLNMTVPSNNSQIPDQDQSEGFHCQDECRILGHSDRCWMPRVPIPARAKSPEHGRNVIALSIEATTVDVPHYEDCGTTKRTFATFGKDGPDEDRAEQRGRRQTAEPAVCSPKTNGAVREAGNGREAVSPITSPVHLKSPQSKASSTYNTLKCRDAERIANHSLLRQPEGKDSEPAMREINTLLQDGRDKESPGSKRLKDIVL
With B1 the binding was “binds”.
